Measured values taken from publication PMC12670160, “A drug-repurposing screen of FDA- and EMA-approved drugs identifies two NF-κB inhibitors active against eumycetoma” (Journal of Antimicrobial Chemotherapy, 2025).
Where a name gives a salt, the structure may show the parent alone. In all, about 5,300 compounds went through this assay and about 130 (2.5%) showed an effect of 50% or more. The list shows a part of the results.

Tested on: M. mycetomatis strain mm55
Details: primary screen, metabolic activity vs growth control; 96 h, 2 µM; inhibitor

Structure (SMILES)	% viability [%]
CO[C@H]1/C=C/O[C@@]2(C)Oc3c(C)c(O)c4c(O)c(c5c(nc6cc(C)ccn65)c4c3C2=O)NC(=O)/C(C)=C\C=C\[C@H](C)[C@H](O)[C@@H](C)[C@@H](O)[C@@H](C)[C@H](OC(C)=O)[C@@H]1C [ONC0004209, rifaximin]	120.7
Cc1ncc(CO)c(C=O)c1O [ONC0003255, pyridoxal]	96.31
CCNCCS(=O)(=O)NC[C@@]1(c2ccccc2)SC(NC(=O)C(C)(C)C)=NN1C(=O)C(C)(C)C [ONC0000804, litronesib]	77.28
CCN(CC)c1ccc(/C=N/NC(=O)c2ccc(O)cc2)cc1 [ONC0002533, dy131]	70.08
COC(=O)[C@H](CC(C)C)NC(=O)[C@H](N)CC(C)C [ONC0003694, leuleuomehcl]	68.85
Nc1ccn([C@H]2C[C@H](O)[C@@H](CO)O2)c(=O)n1 [ONC0001142, 2deoxycytidine hydrochloride]	61.43
O=C(O)CC(=O)C(=O)O [ONC0005597, oxaloacetate]	79.02
O=C(O)CN(CCN(CC(=O)O)CC(=O)O)CC(=O)O [ONC0004164, ethylenediamine tetracetic acid]	70.32
CC(C)(O)CC[C@@H](O)[C@](C)(O)[C@@H]1CC[C@@]2(O)C3=CC(=O)[C@@H]4C[C@@H](O)[C@@H](O)C[C@]4(C)[C@@H]3CC[C@]12C [ONC0005208, 20hydroxyecdysone]	116.5
COc1cc(-c2ncn(/C=C\C(=O)OC(C)C)n2)cc(C(F)(F)F)c1 [ONC0005191, kpt185]	76.75
COc1ccc(-c2nc(N3CCOCC3)c3sc(CN(C)c4ncc(C(=O)NO)cn4)cc3n2)cn1 [ONC0004323, cudc907]	140.8
CCCNC(=O)NS(=O)(=O)c1ccc(Cl)cc1 [ONC0000328, chlorpropamide]	70.17
CCN(CC)C(C)CN1c2ccccc2Sc2ccccc21 (centres unmarked) [ONC0005329, profenamine]	105.4
CC1CS(=O)(=O)CCN1N=Cc1ccc([N+](=O)[O-])o1 (centres unmarked) [ONC0002935, nifurtimox]	70.95
COc1ccc(Cl)c(Nc2nc3ccccc3nc2NS(=O)(=O)c2cccc(NC(=O)C(C)(C)N)c2)c1 [ONC0000795, pilaralisib]	73.55
CN1CCN(CCc2ccc(Cl)c(Cl)c2)CC1 [ONC0000113, bd1063]	72.11
CC(=O)O[C@]1(C(C)=O)CC[C@H]2[C@@H]3C=C(Cl)C4=CC(=O)CC[C@]4(C)[C@H]3CC[C@@]21C [ONC0004202, chlormadinone acetate]	112.8
C=CCN(C)CCCCCCOc1ccc(C(=O)c2ccc(Br)cc2)c(F)c1 [ONC0001825, ro 488071 fumarate]	29.93
Cc1cnc(Nc2ccc(OCCN3CCCC3)cc2)nc1Nc1cccc(S(=O)(=O)NC(C)(C)C)c1 [ONC0004342, fedratinib sar302503 tg101348]	76.05
Cn1ncnc1[C@H]1c2n[nH]c(=O)c3cc(F)cc(c23)N[C@@H]1c1ccc(F)cc1 [ONC0004437, talazoparib bmn 673]	134.3

2 entries drawn at random from the list so far:
Structure (SMILES)	% viability [%]
Nc1ccn([C@H]2C[C@H](O)[C@@H](CO)O2)c(=O)n1 [ONC0001142, 2deoxycytidine hydrochloride]	61.43
COc1ccc(Cl)c(Nc2nc3ccccc3nc2NS(=O)(=O)c2cccc(NC(=O)C(C)(C)N)c2)c1 [ONC0000795, pilaralisib]	73.55

Continuation:

Structure (SMILES)	% viability [%]
c1ccc(Cn2c(N3CCNCC3)nc3ccccc32)cc1 [ONC0003649, lerisetron]	53.42
CC(C)Oc1ccc(-c2cnc3c(-c4ccnc5ccccc45)cnn3c2)cc1 [ONC0005132, dmh1]	98.5
Cc1nc2c([nH]1)-c1ccccc1N(C(=O)c1ccc(NC(=O)c3ccccc3-c3ccccc3)cc1)CC2 [ONC0004899, conivaptan hcl vaprisol]	94.49
CC1=C(C)C(=O)C(C(CCCCCC(=O)O)c2ccccc2)=C(C)C1=O (centres unmarked) [ONC0001282, seratrodast]	73.28
Cc1ccc2c(c1)C(=O)[C@]1(O)CCN(c3ccccc3)C1=N2 [ONC0005093, blebbistatin]	85.85
COc1ccc2c(Oc3ccc(NC(=O)c4c(C)n(CC(C)(C)O)n(-c5ccccc5)c4=O)nc3)ccnc2c1 [ONC0004459, amg458]	144.8
COc1c(C)cnc(Cn2cnc3c(Cl)nc(N)nc32)c1C [ONC0000029, biib021]	96.14
O=c1[nH]c2ccccc2c(=O)n1CCCN1CCN(c2ccccc2)CC1 [ONC0002331, pelanserin]	57.27
CC(C)CCNC(=O)[C@H](CC(C)C)NC(=O)[C@H]1O[C@@H]1C(=O)O [ONC0005165, loxistatin acid e64c]	67.27
NCCCCCC(=O)O [ONC0003178, aminocaproic acid hydrochloride]	100.5
CCCCCCCCCCCCCCCCCCCCCC(=O)O [ONC0003462, docosanoic acid]	69.23
c1ccc2c(CCNc3ccc(Nc4ccncc4)cc3)c[nH]c2c1 [ONC0004895, jnj 26854165 serdemetan]	144.5
Cc1csc(-c2nnc(Nc3ccc(Oc4ncccc4-c4ccnc(N)n4)cc3)c3ccccc23)c1 [ONC0004333, amg 900]	137.6
CC(NC(C)(C)C)C(=O)c1cccc(Cl)c1 (centres unmarked) [ONC0002366, bupropion]	81.3
N#C/C(=C\c1ccc(O)c(O)c1)C(=O)NCCCCc1ccccc1 [ONC0000130, ag556]	86.17
COC(=O)NC(C)CNc1nccc(-c2cn(C(C)C)nc2-c2cc(Cl)cc(NS(C)(=O)=O)c2F)n1 (centres unmarked) [ONC0004371, encorafenib lgx818]	101
NC(=O)C[C@H](N)C(=O)O [ONC0002130, lasparagine]	76.47
C#Cc1cncc([C@@H]2CCCN2C)c1 [ONC0000114, altinicline]	86.96
NC1(C(=O)O)CC1 [ONC0001943, 1aminocyclopropanecarboxylic acid]	104.2
Cc1noc(NS(=O)(=O)c2cccc3c(N(C)C)cccc23)c1C [ONC0001555, bms182874]	108.5

Structure (SMILES)	% viability [%]
CCN(CC)C(=O)c1ccc(O)c(OC)c1 [ONC0005425, ethamivan]	72.26
Clc1ccc(N/N=C(\c2ccccc2)c2ccccn2)nc1 [ONC0004403, jib04 nsc693627]	57.7
O=C(c1ccc(F)cc1)C1CCN(CCn2c(=O)[nH]c3ccccc3c2=O)CC1 [ONC0004156, ketanserin]	94.97
CCCCCCCC/C=C/CCCCCCCC(=O)OC[C@H]1O[C@@H](n2ccc(N)nc2=O)C(F)(F)[C@@H]1O [ONC0000902, gemcitabine elaidate]	79.09
CC(=O)O[C@@H]1CC[C@@]2(C)[C@@H](CC[C@]3(C)[C@@H]2C(=O)C=C2[C@@H]4[C@@H](C)[C@H](C)CC[C@]4(C)CC[C@]23C)[C@@]1(C)C(=O)O [ONC0002083, akba]	67.6
NC(=O)Nc1cc(-c2cccc(F)c2)sc1C(=O)N[C@H]1CCCNC1 [ONC0001254, azd7762]	80.73
Nc1ncnc2c1ncn2[C@@H]1O[C@H](COP(=O)(O)OP(=O)(O)OP(=O)(O)OP(=O)(O)OC[C@H]2O[C@@H](n3cnc4c(N)ncnc43)C(O)C2O)C(O)C1O (some centres unmarked) [ONC0001970, p1p4diadenosine5tetraphosphate ammonium salt]	87.03
C[C@H]1[C@H](C)CC[C@]2(C(=O)O)CC[C@]3(C)C(=CC[C@@H]4[C@@]5(C)CC[C@H](O)C(C)(C)[C@@H]5CC[C@]43C)[C@H]12 [ONC0005508, ursolicacid]	146.9
C[Se]C[C@H](N)C(=O)O [ONC0002605, semethylselenolcysteine]	72.63
O=C(O)[C@@H]1C[C@@H](O)CN1 [ONC0004124, trans4hydroxylproline]	95.08
C[C@H](N)C(=O)N[C@@]1(C(=O)O)C[C@@H](Sc2nnc[nH]2)[C@H]2[C@H](C(=O)O)[C@H]21 [ONC0000921, ly2979165]	66.28
CC(=O)N[C@@H](CSC/C=C(\C)CC/C=C(\C)CCC=C(C)C)C(=O)O [ONC0003861, acetylfarnesylcysteine]	77.21
Cc1nc2c(-c3cnc(N)nc3)nc(N3CCOCC3)nc2n1C(C)C [ONC0001346, vs5584]	70.29
Nc1nccc(Oc2ccc(NC(=O)c3c[nH]cc(-c4ccc(F)cc4)c3=O)cc2F)c1Cl [ONC0004988, bms 794833]	97.21
CCN(CC)C(=S)S [ONC0003713, ditiocarbsodiumtrihydrate]	88.67
O=C(c1c(F)ccc(NS(=O)(=O)N2CC[C@@H](F)C2)c1F)c1c[nH]c2ncc(-c3cnc(C4CC4)nc3)cc12 [ONC0000848, plx8394]	61.89
CC(=O)[C@@]1(O)CC[C@H]2[C@@H]3CCC4=CC(=O)CC[C@]4(C)[C@H]3CC[C@@]21C [ONC0005305, hydroxyprogesterone]	50.87
COc1ccc(COc2ccc(CC#N)cc2)cc1 [ONC0003563, o4i1]	136
CC1=C(/C=C/C(C)=C/C=C/C(C)CC=O)C(C)(C)CCC1 (stereo not drawn) [ONC0004153, all trans retinal]	80.19
